PubChem BioAssay AID1259289 | Sanger Institute | 2017
In all, the deposit lists 794 reagents; this is a part drawn at random. 16 of them (2%) count as active. 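Active marks cell loss from silencing alone; drug synergy shows only in the synergy scores, not the calls.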 No viability above 1 is reported: the scale is capped. Reagent sequences are not shown. The record does not give: the amount of reagent, the time to read-out.

Purpose: 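Kinases that bowel cancer cells need to survive, with or without BYL719, cetuximab, trametinib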 (primary screen)
Cell system: human LS513 colorectal cancer cells
Reagents: siRNA pool against human genes
Treatment: anchor drug BYL719 at 1 µM, cetuximab at 5 µg/ml or trametinib at 10 nM, or DMSO vehicle alone; exposure time not given
Read-out: 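Cell survival as a fraction of the non-targeting pool, replicate means; robust z-score for silencing alone under DMSO; synergy score for each of BYL719, cetuximab and trametinib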
Scale: robust z-score, siRNA alone (DMSO): higher = more viable cells; strongly negative means essential; viability with DMSO vs control: higher = more viable cells; synergy score with BYL719: higher = stronger combined killing with BYL719; synergy score with cetuximab: higher = stronger combined killing with cetuximab; synergy score with trametinib: higher = stronger combined killing with trametinib
Call rule: 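a gene counts as active if its DMSO-only robust z-score falls under -3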
Calls: active = essential (knock-down alone); inactive = not essential

| target gene | robust z-score, siRNA alone (DMSO) | viability with DMSO vs control (fraction of control) | synergy score with BYL719 | synergy score with cetuximab | synergy score with trametinib | activity call |
| --- | --- | --- | --- | --- | --- | --- |
| RPS6KA3 | 0.561 | 1 | -0.134 | -0.0968 | -0.0777 | inactive |
| DDR2 | 0.561 | 1 | -0.134 | -0.0968 | 0.0104 | inactive |
| PHKA2 | 0.561 | 1 | -0.109 | -0.0293 | 0.0157 | inactive |
| ACVR1 | -0.071 | 0.91 | 0.0639 | 0.116 | 0.0339 | inactive |
| STK17B | -0.36 | 0.869 | 0.00726 | -0.00269 | 0.0664 | inactive |
| MASTL | -3.73 | 0.391 | -0.015 | -0.0578 | -0.0899 | active |
| CKB | 0.561 | 1 | -0.134 | -0.0968 | -0.0251 | inactive |
| GUCY2D | -4.39 | 0.297 | -0.0734 | 0.115 | 0.0387 | active |
| POLR2B | -1.36 | 0.727 | 0.0496 | 0.0406 | 0.0208 | inactive |
| PRKDC | -0.0698 | 0.91 | 0.118 | 0.19 | 0.00568 | inactive |
| EPHB2 | 0.561 | 1 | -0.134 | -0.0968 | 0.0711 | inactive |
| CAMK1 | -0.548 | 0.843 | -0.0857 | -0.115 | 0.0248 | inactive |
| TNK1 | 0.561 | 1 | 0.153 | 0.0156 | 0.0104 | inactive |
| TNK2 | 0.561 | 1 | -0.134 | -0.0968 | -0.0042 | inactive |
| TCF7L2 | 0.561 | 1 | -0.134 | -0.0968 | -0.0411 | inactive |
| MAP3K6 | 0.561 | 1 | -0.0832 | -0.0968 | 0.0229 | inactive |
| TEK | 0.561 | 1 | -0.134 | -0.0968 | 0.0195 | inactive |
| RFK | 0.561 | 1 | -0.134 | -0.0968 | 0.0169 | inactive |
| FER | 0.561 | 1 | 0.0202 | -0.0968 | -0.0223 | inactive |
| MAPK14 | 0.561 | 1 | 0.011 | 0.134 | 0.0452 | inactive |
| ULK2 | 0.561 | 1 | 0.038 | -0.00617 | 0.0533 | inactive |
| STK17A | -2.31 | 0.592 | 0.0506 | 0.137 | -0.0155 | inactive |
| HCK | 0.561 | 1 | 0.0405 | 0.0485 | 0.0326 | inactive |
| PFKL | 0.561 | 1 | -0.134 | -0.0968 | 0.0181 | inactive |
| DLG2 | 0.561 | 1 | -0.017 | -0.0968 | -0.108 | inactive |
| FBXW7 | 0.561 | 1 | -0.11 | -0.0968 | -0.00366 | inactive |
| MYLK4 | 0.368 | 0.973 | 0.0951 | 0.165 | -0.0311 | inactive |
| PRKCG | 0.561 | 1 | -0.134 | -0.0547 | 0.00494 | inactive |
| PGK1 | 0.561 | 1 | -0.134 | -0.0968 | -0.00155 | inactive |
| ADCK5 | 0.561 | 1 | -0.0879 | -0.0968 | -0.0161 | inactive |
| PIP4K2C | 0.236 | 0.954 | -0.109 | -0.124 | 0.0157 | inactive |
| PRKAA1 | 0.561 | 1 | -0.0402 | 0.0312 | -0.0302 | inactive |
| NUP107 | -4.21 | 0.323 | -0.0115 | 0.0124 | 0.00165 | active |
| RPS6KA6 | 0.561 | 1 | 0.151 | 0.075 | 0.0335 | inactive |
| RNASEL | 0.561 | 1 | -0.134 | -0.0233 | 0.0419 | inactive |
| DYRK2 | 0.561 | 1 | -0.131 | -0.0968 | 0.0845 | inactive |
| WNK2 | -0.000985 | 0.92 | 0.0901 | -0.0859 | -0.121 | inactive |
| AURKC | 0.461 | 0.986 | 0.0543 | 0.0977 | 0.0482 | inactive |
| CSNK2B | 0.561 | 1 | -0.0263 | 0.0766 | -0.0362 | inactive |
| BMAL1 | -1.16 | 0.756 | 0.0928 | 0.0781 | -0.0836 | inactive |
| GUK1 | 0.561 | 1 | -0.0664 | -0.0968 | -0.000535 | inactive |
| NEK5 | 0.561 | 1 | -0.134 | -0.0498 | -0.0252 | inactive |
| ERBB2 | 0.561 | 1 | -0.0418 | -0.042 | -0.0833 | inactive |
| DGKK | 0.561 | 1 | -0.134 | -0.0692 | 0.0103 | inactive |
| MAP3K2 | 0.221 | 0.952 | -0.0985 | 0.126 | 0.0266 | inactive |
| PRKACG | -0.774 | 0.811 | 0.139 | 0.157 | 0.00683 | inactive |
| STK3 | 0.561 | 1 | -0.0383 | -0.0968 | 0.0223 | inactive |
| MGA | -2.15 | 0.615 | 0.0109 | 0.0441 | 0.0167 | inactive |
| DCLK2 | -2.09 | 0.624 | -0.0836 | -0.00802 | -0.0307 | inactive |
| TCF12 | 0.561 | 1 | -0.0491 | 0.0377 | -0.0333 | inactive |
